Experimental data as given in patent publication US20050222029A1.
Results are given in words; binding and its absence hold for the method and conditions named. A result given as binding can be weak or reduced; the word gives no strength. Blank lines part the entries; values can stand above or below the substance they belong to.

Protein sequences, listed by entry. Tags and fused reporters are not part of them. Lines headed by an entry give the natural chain unless they say otherwise; changes in a name come on top. Residues count along the entry.
UniProt P04114: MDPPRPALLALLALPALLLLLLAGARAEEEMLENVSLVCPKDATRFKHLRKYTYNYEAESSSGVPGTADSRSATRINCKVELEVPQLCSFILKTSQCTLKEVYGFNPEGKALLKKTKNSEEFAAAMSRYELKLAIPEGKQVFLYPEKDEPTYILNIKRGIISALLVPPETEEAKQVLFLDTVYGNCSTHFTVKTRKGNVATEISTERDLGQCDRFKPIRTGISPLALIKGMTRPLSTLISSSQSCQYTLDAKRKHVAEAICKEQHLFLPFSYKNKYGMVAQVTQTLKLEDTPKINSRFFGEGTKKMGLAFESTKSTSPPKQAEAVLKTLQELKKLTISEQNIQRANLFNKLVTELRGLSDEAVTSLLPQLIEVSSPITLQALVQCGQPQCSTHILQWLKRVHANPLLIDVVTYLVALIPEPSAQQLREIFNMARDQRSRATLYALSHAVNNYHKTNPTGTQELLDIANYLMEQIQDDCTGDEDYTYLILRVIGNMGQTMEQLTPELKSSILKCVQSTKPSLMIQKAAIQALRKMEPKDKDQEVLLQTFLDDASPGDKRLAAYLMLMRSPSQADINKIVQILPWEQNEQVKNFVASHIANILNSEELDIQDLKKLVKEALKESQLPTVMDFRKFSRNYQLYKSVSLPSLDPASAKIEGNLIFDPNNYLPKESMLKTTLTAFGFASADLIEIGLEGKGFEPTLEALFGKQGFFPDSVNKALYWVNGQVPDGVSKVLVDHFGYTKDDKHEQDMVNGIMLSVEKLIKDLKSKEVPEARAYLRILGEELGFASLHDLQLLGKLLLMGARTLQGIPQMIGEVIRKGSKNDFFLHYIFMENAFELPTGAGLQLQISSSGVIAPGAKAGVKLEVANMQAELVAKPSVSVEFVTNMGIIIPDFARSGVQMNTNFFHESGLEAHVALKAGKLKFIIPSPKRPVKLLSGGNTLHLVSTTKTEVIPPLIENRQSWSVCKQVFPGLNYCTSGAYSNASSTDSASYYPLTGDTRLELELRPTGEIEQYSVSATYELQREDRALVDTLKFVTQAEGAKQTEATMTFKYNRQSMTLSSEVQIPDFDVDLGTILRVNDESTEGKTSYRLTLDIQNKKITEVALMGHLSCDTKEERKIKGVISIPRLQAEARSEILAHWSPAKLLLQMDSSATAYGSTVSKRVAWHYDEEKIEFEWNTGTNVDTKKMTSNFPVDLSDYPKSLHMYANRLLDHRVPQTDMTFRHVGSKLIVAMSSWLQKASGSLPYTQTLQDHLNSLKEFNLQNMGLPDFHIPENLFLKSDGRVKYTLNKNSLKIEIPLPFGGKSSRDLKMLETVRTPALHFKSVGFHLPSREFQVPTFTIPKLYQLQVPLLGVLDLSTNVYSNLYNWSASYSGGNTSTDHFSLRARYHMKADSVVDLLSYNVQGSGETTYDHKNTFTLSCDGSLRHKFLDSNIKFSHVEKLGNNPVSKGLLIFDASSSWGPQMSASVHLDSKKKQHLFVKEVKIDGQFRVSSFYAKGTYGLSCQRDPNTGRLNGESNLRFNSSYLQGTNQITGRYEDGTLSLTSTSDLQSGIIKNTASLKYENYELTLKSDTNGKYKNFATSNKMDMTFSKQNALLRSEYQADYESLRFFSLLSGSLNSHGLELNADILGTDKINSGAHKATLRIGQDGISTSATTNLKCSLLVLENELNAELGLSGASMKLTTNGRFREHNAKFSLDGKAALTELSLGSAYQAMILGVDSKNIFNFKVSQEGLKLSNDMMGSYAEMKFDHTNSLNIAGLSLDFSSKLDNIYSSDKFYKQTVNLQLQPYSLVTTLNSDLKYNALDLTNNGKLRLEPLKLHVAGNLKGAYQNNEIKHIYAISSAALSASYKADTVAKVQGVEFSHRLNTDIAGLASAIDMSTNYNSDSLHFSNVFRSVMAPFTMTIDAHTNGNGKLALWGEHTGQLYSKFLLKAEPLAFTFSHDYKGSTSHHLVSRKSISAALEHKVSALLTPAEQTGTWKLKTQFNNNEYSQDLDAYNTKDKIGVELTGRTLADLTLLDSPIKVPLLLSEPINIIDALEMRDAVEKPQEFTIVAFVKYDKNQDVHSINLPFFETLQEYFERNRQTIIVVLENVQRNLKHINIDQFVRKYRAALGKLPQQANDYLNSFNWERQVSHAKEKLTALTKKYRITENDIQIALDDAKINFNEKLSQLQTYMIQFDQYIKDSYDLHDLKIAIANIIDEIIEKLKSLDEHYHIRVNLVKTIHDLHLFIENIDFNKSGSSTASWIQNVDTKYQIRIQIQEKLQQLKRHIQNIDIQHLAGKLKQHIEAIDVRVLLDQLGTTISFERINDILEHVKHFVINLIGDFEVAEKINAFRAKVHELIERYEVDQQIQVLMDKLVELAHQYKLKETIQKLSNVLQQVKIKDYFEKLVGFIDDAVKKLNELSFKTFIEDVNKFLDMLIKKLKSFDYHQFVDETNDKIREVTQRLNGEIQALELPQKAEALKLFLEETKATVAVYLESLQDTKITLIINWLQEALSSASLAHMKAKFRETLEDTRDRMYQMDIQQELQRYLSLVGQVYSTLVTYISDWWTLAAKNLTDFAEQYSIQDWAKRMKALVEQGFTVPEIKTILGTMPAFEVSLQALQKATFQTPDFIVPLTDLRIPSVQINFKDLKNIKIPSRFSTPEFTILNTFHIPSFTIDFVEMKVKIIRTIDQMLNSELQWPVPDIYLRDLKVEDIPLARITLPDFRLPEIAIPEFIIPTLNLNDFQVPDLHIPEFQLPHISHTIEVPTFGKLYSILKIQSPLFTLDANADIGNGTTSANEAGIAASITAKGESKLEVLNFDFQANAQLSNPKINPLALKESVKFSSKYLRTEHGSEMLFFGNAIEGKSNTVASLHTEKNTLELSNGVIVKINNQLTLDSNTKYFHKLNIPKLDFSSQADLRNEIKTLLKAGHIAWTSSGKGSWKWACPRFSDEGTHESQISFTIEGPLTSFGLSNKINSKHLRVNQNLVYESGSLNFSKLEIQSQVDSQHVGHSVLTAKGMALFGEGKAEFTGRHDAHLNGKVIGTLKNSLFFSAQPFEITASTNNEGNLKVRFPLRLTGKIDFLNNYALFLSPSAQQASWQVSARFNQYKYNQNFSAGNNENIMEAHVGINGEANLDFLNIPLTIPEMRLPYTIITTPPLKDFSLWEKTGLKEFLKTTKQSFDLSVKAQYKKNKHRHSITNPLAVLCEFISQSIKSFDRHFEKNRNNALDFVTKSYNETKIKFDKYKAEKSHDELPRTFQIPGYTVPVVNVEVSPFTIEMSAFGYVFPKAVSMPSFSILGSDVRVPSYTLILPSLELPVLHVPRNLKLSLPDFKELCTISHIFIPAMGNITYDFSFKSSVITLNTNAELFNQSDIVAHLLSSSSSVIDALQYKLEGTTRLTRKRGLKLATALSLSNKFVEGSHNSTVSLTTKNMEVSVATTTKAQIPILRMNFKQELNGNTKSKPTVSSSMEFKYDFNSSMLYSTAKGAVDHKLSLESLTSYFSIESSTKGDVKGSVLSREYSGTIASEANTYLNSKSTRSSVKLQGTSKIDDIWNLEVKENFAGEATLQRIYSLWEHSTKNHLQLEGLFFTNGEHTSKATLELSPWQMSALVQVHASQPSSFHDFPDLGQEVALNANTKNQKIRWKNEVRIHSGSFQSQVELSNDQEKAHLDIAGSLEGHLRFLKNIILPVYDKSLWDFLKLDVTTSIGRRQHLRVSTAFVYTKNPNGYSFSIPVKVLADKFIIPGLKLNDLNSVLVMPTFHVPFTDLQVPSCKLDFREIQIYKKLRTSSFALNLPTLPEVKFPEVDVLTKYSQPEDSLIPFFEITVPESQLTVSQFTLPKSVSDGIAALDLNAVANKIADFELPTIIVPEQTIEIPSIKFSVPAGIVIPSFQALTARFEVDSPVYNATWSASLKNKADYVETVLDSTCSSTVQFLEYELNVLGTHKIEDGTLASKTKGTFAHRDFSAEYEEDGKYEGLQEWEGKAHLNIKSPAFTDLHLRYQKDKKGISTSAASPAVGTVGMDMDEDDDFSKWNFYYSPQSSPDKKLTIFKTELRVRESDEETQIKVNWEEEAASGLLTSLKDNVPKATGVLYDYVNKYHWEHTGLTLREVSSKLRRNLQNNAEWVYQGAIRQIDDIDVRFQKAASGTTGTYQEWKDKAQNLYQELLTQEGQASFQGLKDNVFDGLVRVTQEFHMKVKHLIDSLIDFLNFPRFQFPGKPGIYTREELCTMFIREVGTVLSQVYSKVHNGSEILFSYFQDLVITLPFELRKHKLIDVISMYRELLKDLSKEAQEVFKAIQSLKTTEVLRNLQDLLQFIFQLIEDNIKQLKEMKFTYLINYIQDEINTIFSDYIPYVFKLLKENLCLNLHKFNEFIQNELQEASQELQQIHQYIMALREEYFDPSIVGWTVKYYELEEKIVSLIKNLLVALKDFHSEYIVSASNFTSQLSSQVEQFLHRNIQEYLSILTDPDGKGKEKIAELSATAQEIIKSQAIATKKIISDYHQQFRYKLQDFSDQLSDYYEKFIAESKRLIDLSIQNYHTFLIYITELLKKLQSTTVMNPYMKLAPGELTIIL
UniProt Q13438: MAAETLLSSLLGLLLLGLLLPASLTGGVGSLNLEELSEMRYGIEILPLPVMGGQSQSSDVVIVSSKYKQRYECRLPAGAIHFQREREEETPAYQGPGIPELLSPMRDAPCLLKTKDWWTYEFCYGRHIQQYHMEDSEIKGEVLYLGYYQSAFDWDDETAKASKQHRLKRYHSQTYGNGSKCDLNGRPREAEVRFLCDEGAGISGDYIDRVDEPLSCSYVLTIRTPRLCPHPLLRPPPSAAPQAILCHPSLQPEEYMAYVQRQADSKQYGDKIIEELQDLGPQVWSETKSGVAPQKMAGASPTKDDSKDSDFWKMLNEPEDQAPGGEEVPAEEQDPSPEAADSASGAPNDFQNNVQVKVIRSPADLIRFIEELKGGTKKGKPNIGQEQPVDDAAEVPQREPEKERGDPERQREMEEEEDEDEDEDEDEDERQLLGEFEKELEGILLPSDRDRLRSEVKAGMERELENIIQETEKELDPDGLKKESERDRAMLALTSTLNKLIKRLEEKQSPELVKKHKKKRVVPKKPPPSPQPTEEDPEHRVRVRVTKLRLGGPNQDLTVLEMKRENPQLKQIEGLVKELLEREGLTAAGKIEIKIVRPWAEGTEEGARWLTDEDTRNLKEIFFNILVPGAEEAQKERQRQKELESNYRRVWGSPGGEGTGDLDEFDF
UniProt P32418: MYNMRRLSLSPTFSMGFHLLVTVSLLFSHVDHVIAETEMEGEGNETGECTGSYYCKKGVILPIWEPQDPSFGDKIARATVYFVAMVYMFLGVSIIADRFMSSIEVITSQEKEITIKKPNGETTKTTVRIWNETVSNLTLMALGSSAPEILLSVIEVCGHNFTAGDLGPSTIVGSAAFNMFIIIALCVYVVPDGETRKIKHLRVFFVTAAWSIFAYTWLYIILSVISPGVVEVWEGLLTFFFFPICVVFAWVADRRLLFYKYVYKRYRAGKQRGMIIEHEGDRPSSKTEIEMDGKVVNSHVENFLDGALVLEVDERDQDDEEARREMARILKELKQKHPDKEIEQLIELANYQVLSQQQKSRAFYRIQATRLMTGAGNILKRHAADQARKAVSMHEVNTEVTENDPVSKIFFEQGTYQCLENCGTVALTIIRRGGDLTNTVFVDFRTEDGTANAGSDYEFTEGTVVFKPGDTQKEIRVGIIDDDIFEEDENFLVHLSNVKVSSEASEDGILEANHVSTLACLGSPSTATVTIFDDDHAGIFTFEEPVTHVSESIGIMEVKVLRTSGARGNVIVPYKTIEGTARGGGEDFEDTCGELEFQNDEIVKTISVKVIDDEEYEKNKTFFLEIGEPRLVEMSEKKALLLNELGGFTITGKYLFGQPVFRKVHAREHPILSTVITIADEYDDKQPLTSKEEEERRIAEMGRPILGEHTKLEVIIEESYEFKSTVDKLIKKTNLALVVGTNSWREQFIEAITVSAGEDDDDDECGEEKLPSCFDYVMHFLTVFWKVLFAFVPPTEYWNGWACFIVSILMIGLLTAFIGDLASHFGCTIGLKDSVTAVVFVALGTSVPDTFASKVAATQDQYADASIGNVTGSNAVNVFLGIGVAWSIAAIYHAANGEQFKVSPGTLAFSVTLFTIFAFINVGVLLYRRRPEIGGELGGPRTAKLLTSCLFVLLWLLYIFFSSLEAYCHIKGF
UniProt P02647: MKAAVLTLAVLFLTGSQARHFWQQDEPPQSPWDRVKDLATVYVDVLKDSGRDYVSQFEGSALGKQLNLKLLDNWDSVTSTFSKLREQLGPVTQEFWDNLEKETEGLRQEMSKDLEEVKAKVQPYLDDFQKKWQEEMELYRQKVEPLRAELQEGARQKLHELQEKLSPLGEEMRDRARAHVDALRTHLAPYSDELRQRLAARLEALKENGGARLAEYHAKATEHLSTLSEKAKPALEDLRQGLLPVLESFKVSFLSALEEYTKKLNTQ
UniProt Q99816, residues 317-390: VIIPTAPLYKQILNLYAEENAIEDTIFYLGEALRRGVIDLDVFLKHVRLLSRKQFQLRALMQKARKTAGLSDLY

Legend:
[1] = target: apolipoprotein B-100 (APOB) 4307-4522 (human) (UniProt P04114); assay: yeast two-hybrid
[2] = target: T1, golgi autoantigen, 84 kD protein (Golgin-84) 512-726 (human) (UniProt Q8TBA6); assay: yeast two-hybrid
T1 sequence (looked up): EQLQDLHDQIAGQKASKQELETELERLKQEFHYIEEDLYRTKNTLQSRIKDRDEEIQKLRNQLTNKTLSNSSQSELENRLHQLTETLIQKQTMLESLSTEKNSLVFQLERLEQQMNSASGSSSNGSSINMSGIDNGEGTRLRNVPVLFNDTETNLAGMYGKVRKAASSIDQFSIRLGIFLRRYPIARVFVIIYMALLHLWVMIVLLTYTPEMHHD

[3] = target: T2, hypothetical protein FLJ20724 (FLJ20724) 162-248 (human) (UniProt Q9H0C5); assay: yeast two-hybrid
T2 sequence (looked up): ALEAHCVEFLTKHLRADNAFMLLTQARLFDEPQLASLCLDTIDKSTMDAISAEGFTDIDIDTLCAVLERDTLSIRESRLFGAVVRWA

[4] = target: prenylated Rab acceptor 1 (PRA1) 1-185 (human) (UniProt Q9UI14); assay: yeast two-hybrid
[5] = target: prenylated Rab acceptor 1 (PRA1) 1-185 (human) (UniProt Q9UI14); assay: yeast two-hybrid, liver library
[6] = target: T3, golgi autoantigen, 84 kD protein (Golgin-84) 534-731 (human) (UniProt Q8TBA6); assay: yeast two-hybrid
T3 sequence (looked up): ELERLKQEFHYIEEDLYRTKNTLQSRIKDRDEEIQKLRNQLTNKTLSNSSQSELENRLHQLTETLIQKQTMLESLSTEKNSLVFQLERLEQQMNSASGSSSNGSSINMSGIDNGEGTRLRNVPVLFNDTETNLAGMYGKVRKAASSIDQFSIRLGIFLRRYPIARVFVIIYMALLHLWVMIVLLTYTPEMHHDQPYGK

[7] = target: T4, golgi autoantigen, 84 kD protein (Golgin-84) 563-731 (human) (UniProt Q8TBA6); assay: yeast two-hybrid
T4 sequence (looked up): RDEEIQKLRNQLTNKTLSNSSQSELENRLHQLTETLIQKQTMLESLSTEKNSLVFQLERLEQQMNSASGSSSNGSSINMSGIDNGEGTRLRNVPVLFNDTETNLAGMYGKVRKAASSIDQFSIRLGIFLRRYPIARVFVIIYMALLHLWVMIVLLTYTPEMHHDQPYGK

[8] = target: Amplified in osteosarcoma-9 (OS-9) 171-350 (human) (UniProt Q13438); assay: yeast two-hybrid
[9] = target: Amplified in osteosarcoma-9 (OS-9) 213-503 (human) (UniProt Q13438); assay: yeast two-hybrid
[10] = target: Amplified in osteosarcoma-9 (OS-9) 171-350 (human) (UniProt Q13438); assay: yeast two-hybrid, brain library
[11] = target: Amplified in osteosarcoma-9 (OS-9) 213-503 (human) (UniProt Q13438); assay: yeast two-hybrid, brain library
[12] = target: Na^+/Ca^2+-exchange protein 1 (SLC8A1) 302-575 (human) (UniProt P32418); assay: yeast two-hybrid

binding [1]: binds
binding [2]: binds
binding [3]: binds
binding [4]: binds
binding [5]: binds
Substance: Apolipoprotein A-I (APOA1) 106-267 (from UniProt P02647)

binding [6]: binds
binding [7]: binds
Substance: Apolipoprotein A-I (APOA1) 23-267 (from UniProt P02647)

binding [8]: binds
binding [9]: binds
binding [10]: binds
binding [11]: binds
Substance: Tumor Suppressor (TSG101) 317-391 (from UniProt Q99816 317-390)

Substance: Survivin (BIRC5) 52-143 (from UniProt O15392 52-142)
binding [12]: binds
